Experimental data reported in the supplement of paper PMC10849652.
This is one part of the list.

By UniProt entry, the sequences of proteins in these tests, tags left out. Where a name states a change or a piece, a line headed by the entry shows the natural chain unless it says otherwise.
UniProt P57740: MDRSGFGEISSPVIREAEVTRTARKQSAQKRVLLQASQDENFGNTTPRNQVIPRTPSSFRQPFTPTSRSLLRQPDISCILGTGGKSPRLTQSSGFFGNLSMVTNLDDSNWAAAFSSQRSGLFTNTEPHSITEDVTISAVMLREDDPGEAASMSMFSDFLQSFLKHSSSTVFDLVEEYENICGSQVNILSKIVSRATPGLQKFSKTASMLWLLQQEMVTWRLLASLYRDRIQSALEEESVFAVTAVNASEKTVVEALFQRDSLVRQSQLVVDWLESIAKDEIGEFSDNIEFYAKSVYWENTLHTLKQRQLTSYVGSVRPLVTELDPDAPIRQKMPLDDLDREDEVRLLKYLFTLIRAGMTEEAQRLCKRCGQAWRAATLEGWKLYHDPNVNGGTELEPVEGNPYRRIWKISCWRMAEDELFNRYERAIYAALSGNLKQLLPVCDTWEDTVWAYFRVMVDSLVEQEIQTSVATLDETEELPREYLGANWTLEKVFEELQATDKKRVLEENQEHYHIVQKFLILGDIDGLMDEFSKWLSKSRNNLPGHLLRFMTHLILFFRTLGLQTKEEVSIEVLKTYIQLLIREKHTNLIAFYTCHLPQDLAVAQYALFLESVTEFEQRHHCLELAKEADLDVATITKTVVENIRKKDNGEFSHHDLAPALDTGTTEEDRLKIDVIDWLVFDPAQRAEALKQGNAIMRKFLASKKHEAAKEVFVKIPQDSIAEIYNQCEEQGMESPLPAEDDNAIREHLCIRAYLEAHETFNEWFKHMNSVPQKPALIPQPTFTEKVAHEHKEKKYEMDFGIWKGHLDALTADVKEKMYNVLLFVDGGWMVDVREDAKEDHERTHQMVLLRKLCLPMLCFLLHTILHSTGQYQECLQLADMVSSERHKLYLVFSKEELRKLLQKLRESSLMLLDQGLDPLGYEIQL
UniProt O15460: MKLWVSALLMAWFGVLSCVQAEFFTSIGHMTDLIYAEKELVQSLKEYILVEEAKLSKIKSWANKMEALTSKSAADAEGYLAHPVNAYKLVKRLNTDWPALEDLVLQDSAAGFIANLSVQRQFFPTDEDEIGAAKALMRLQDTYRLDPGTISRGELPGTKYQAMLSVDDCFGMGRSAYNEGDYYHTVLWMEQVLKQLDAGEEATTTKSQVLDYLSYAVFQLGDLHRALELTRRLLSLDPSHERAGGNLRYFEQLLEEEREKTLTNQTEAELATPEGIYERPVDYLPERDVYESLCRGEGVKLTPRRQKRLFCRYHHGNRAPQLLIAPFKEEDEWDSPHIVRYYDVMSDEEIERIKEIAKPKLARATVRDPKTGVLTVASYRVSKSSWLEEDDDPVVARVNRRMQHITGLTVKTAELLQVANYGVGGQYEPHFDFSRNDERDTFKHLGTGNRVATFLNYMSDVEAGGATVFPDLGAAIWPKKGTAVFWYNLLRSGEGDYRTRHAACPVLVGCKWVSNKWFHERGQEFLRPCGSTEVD
UniProt Q8WZ82: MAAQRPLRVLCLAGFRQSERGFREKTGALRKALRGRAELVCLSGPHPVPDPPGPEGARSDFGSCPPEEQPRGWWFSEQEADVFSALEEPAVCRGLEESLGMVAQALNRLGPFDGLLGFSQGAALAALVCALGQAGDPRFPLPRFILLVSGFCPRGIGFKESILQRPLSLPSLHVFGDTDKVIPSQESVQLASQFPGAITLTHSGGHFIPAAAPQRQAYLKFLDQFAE
UniProt Q5BKU9: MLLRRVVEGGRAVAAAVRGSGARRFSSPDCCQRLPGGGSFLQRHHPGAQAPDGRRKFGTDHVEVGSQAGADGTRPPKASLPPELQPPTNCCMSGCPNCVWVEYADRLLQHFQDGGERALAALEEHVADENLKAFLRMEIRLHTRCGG
UniProt Q9H4B0: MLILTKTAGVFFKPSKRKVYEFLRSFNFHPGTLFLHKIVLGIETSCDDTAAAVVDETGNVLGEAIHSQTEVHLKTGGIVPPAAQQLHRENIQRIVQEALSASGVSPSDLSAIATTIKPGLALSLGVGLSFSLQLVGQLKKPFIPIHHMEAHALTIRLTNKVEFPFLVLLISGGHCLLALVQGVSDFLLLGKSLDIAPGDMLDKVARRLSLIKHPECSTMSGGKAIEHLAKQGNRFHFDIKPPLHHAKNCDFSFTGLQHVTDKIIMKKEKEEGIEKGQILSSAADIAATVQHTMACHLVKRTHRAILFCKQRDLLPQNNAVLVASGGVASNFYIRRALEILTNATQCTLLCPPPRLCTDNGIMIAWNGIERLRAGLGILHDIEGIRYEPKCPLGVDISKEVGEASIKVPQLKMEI
UniProt P47900: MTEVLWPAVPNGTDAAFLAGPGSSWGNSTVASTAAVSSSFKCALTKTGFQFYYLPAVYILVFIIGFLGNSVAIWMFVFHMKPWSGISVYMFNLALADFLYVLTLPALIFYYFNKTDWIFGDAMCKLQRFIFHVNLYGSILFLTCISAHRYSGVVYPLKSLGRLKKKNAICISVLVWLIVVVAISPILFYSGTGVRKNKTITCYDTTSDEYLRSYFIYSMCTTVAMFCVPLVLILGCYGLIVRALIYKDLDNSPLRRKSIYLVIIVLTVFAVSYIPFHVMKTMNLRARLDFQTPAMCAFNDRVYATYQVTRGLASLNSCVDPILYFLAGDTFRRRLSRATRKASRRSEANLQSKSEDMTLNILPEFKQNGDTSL
UniProt Q9Y6R0: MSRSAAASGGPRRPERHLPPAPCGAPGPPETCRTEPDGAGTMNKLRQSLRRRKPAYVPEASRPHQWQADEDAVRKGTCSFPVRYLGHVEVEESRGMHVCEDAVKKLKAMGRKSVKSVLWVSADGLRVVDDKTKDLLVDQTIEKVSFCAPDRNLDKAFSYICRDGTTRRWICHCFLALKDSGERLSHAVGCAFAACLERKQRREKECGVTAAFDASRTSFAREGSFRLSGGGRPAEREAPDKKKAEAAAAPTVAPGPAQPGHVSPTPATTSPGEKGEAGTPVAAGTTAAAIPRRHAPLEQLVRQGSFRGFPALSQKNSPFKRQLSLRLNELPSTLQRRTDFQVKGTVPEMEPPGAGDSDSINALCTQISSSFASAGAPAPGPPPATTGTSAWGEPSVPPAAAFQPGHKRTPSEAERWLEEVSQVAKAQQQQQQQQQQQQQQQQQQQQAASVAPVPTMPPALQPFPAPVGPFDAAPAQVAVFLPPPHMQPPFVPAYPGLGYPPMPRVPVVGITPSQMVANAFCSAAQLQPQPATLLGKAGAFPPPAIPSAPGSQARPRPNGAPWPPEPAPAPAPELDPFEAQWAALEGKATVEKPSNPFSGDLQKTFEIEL
UniProt Q6PK18: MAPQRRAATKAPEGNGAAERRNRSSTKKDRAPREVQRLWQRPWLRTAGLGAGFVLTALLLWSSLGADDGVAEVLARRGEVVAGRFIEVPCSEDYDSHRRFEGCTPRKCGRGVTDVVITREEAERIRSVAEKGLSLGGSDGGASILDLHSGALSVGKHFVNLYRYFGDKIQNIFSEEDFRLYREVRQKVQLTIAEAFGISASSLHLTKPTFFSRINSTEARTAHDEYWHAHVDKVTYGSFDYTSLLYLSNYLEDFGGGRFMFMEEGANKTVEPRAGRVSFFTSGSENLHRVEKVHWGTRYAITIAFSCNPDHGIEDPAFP
UniProt O60890: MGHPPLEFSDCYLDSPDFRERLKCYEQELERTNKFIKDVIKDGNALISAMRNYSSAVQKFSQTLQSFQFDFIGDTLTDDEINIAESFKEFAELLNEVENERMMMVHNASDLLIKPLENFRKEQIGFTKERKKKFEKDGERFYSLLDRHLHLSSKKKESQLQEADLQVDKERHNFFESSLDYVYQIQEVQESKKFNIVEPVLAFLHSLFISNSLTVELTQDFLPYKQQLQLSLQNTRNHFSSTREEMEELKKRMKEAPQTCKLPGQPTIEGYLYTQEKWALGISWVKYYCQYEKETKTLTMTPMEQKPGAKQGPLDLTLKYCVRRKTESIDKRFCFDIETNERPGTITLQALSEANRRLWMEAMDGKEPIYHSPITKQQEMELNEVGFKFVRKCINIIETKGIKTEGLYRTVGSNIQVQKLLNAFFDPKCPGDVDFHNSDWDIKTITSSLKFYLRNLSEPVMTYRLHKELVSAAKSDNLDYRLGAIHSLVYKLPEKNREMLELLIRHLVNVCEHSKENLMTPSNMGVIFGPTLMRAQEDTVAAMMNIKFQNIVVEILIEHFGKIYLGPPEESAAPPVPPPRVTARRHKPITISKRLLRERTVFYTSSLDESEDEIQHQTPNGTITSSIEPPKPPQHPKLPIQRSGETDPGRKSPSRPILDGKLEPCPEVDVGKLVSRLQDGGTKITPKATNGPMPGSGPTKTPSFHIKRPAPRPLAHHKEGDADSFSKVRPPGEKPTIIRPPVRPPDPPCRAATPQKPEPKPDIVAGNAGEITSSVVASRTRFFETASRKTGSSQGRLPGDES
UniProt Q9H1P3, whole entry, looked up: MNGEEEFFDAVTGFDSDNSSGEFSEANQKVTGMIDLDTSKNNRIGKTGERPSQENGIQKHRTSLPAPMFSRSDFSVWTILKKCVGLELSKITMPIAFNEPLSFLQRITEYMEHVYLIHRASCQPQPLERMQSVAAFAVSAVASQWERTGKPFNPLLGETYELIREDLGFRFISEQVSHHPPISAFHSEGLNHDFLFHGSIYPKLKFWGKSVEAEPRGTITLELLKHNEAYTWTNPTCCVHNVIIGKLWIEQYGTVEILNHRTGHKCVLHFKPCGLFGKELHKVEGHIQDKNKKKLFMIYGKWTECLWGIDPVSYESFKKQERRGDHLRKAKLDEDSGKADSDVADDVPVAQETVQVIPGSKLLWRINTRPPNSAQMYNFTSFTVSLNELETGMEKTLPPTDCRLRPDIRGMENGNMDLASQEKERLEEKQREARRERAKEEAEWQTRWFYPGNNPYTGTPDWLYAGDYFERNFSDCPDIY
UniProt Q9Y6K5: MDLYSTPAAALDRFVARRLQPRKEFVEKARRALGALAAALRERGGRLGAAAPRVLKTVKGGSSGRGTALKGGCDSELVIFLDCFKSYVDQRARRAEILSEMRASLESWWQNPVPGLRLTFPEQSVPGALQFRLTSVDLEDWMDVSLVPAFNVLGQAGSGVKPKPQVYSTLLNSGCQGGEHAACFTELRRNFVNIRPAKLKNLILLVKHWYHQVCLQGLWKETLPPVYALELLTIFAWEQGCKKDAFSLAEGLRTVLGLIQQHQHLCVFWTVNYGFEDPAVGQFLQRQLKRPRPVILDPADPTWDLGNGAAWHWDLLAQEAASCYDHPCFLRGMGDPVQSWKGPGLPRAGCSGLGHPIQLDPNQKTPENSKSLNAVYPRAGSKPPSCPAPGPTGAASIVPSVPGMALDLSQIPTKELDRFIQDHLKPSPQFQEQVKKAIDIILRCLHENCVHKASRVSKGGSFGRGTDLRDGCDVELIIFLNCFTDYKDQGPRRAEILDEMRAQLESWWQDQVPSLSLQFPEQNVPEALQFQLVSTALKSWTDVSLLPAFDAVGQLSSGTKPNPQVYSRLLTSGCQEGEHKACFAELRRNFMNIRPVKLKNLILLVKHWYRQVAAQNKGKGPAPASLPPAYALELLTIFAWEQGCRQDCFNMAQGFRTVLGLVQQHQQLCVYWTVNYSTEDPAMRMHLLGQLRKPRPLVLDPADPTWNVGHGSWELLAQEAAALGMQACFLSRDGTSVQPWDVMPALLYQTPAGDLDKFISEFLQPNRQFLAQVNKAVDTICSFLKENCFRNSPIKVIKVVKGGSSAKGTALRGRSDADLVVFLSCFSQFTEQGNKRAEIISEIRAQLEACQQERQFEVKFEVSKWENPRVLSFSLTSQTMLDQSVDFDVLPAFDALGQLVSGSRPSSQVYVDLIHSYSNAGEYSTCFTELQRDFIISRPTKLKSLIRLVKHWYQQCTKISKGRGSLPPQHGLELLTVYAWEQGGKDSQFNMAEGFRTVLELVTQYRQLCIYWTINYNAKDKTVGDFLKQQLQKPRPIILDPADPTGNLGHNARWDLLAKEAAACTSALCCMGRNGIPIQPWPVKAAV
UniProt P0C024: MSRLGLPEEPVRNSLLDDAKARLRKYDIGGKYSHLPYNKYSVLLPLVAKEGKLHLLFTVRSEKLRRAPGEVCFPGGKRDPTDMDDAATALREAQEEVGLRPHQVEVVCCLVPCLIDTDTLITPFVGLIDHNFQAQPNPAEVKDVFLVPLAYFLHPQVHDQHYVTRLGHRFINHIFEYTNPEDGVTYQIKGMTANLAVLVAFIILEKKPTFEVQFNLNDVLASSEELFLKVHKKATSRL
UniProt Q99571: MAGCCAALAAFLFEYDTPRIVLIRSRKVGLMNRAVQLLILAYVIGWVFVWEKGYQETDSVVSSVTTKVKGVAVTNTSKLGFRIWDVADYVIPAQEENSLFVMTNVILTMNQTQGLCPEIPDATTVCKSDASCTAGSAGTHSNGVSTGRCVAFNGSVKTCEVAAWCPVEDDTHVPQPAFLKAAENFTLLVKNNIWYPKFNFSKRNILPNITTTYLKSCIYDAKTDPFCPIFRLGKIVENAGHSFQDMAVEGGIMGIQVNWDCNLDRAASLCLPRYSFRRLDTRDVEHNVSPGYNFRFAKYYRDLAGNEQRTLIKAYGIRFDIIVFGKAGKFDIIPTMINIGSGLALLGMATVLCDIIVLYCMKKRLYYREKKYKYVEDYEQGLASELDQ

Experiments:
Experiment in all cases: log2 fold change, soluble protein after heating vs DMSO (PISA); higher = thermal stabilisation; K562 cells, 10 uM, 30 min; active = over 0.2 and 3.5 SD of the protein, either way, in both replicates (recomputed)
[1] = compound: CC[C@@H]1C(=O)N(C)c2cnc(Nc3ccc(C(=O)NC4CCN(C)CC4)cc3OC)nc2N1C1CCCC1
Procedure, shortened: (§1)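 Quantification of soluble protein used TMTpro 16plex LC-MS/MS, with channel sums equalised. Samples were the supernatant after 21,000xg for 90 min of pooled aliquots from K562 cells (2×10^6 cells/mL) treated with 10 μM compound for 30 min, heated for 3 min over 48°C-58°C, and extracted in PBS with 0.5% NP-40 at 4°C. Values, from duplicates, describe thermal stability against control samples on a log2 fold-change scale.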

[2] = compound: CC[C@@H]1C(=O)N(C)c2cnc(Nc3ccc(C(=O)N[C@H]4CC[C@H](N5CCN(CC6CC6)CC5)CC4)cc3OC)nc2N1C(C)C [volasertib]
Procedure, shortened: as §1

[3] = compound: CC[C@H](C)N1C=C(C2=C(C=C(C=C21)C3=CN=C(C=C3)N4CCNCC4)C(=O)NCC5=C(C=C(NC5=O)C)C)C
Procedure, shortened: as §1

[4] = compound: CC[C@H](C)[C@@H](C(=O)N[C@@H]([C@@H](C)O)C(=O)N[C@@H](CC(C)C)C(=O)[C@]1(CO1)C)NC(=O)[C@H]([C@@H](C)CC)N(C)C(=O)C [epoxomicin]
Procedure, shortened: as §1

[5] = compound: CCn1cc(-c2ccnc3[nH]c(-c4cccc(CN(C)C)c4)cc23)c(-c2ccc(NC(=O)N(C)C)cc2)n1
Procedure, shortened: as §1

[6] = compound: CN(C)CC(=O)Nc1ccc2[nH]c(=O)c3ccccc3c2c1
Procedure, shortened: as §1

[7] = compound: CN1C2=C(C3=C1C(=O)N(N=C3)CC4=CC(=CC=C4)N)SC(=C2)S(=O)C
Procedure, shortened: as §1

[8] = compound: CN1CCC(CNc2ccc3ncc(-c4cccc(OC(F)(F)F)c4)n3n2)CC1
Procedure, shortened: as §1

[9] = compound: CCn1c(C(=O)N(C2CC2)C2CC2)cc2c3c(ncn3C)c(Nc3cc(C)n(C)n3)nc21
Procedure, shortened: as §1

[10] = compound: CN(CCOC1=CC=C(C=C1)C[C@H]2C(=O)NC(=O)S2)C3=CC=CC=N3 (racemic) [rosiglitazone]
Procedure, shortened: as §1

Measured: log2 fold change

OSTC (UniProt Q9NRP0)
inactive: [1] -0.01 | [2] -0.141 | [3] 0.011 | [4] -0.073 | [5] 0.039 | [6] 0.073 | [7] -0.129 | [8] -0.053

NUMB (UniProt P49757)
inactive: [1] -0.017 | [2] 0.057 | [3] 0.02 | [4] -0.013 | [5] -0.045 | [6] -0.024 | [7] -0.007 | [8] -0.202

OTULIN (UniProt Q96BN8)
inactive: [1] 0.045 | [2] -0.331 | [3] 0.074 | [4] 0.037 | [5] -0.084 | [6] 0.054 | [7] 0.015 | [8] -0.226

NUDT21 (UniProt O43809)
inactive: [1] 0.036 | [2] 0.074 | [3] -0.033 | [4] -0.107 | [5] 0.038 | [6] -0.041 | [7] -0.013 | [8] 0.064

OSBPL3 (UniProt Q9H4L5)
inactive: [1] 0.136 | [2] 0.621 | [3] -0.126 | [4] -0.37 | [6] 0 | [7] 0.164

OXSM (UniProt Q9NWU1)
inactive: [1] -0.063 | [2] -0.017 | [3] -0.022 | [4] 0.018 | [5] -0.003 | [6] -0.005 | [7] -0.025 | [8] 0.058

OXA1L (UniProt Q15070)
active: [8] -0.221
inactive: [1] -0.067 | [2] -0.014 | [3] -0.015 | [4] -0.046 | [5] -0.012 | [6] -0.019 | [7] -0.027

NUP107 (UniProt P57740)
active: [8] 0.628
inactive: [1] 0.038 | [2] -0.182 | [3] 0.106 | [4] -0.053 | [5] 0.169 | [6] -0.048 | [7] 0.053

P4HA2 (UniProt O15460)
inactive: [1] 0.08 | [2] -0.012 | [3] -0.006 | [4] -0.257 | [5] 0.138 | [6] -0.036 | [7] 0.112 | [8] 0.118

OXR1 isoform 2 (UniProt Q8N573)
inactive: [1] -0.092 | [2] -0.09 | [3] -0.082 | [4] 0.127 | [5] 0.056 | [6] -0.004 | [7] -0.015 | [8] -0.244

ODF2 (UniProt Q5BJF6)
inactive: [4] 0.09 | [5] 0.005 | [8] 0.089

OVCA2 (UniProt Q8WZ82)
inactive: [1] -0.352 | [2] -0.47 | [3] 0.083 | [5] 0.086 | [8] -0.116

OXLD1 (UniProt Q5BKU9)
inactive: [1] 0.124 | [3] -0.074

NUDT2 (UniProt P50583)
inactive: [2] -0.177 | [3] 0.049 | [4] 0.1 | [9] 0.085 | [6] 0.134 | [10] -0.009 | [7] -0.065

ODF2L isoform 4 (UniProt Q9ULJ1)
inactive: [1] 0.127 | [3] -0.01 | [6] 0.053 | [10] -0.051

OBSCN (UniProt A6NGQ3)
inactive: [1] -0.113 | [2] 0.038 | [3] -0.065 | [10] 0.162

NUDT17 (UniProt P0C025)
inactive: [3] 0.102 | [4] -0.181 | [9] -0.172 | [6] 0.225 | [10] -0.164

Two successive entries already listed:
NUDT2 (UniProt P50583)
inactive: [2] -0.177 | [3] 0.049 | [4] 0.1 | [9] 0.085 | [6] 0.134 | [10] -0.009 | [7] -0.065

ODF2L isoform 4 (UniProt Q9ULJ1)
inactive: [1] 0.127 | [3] -0.01 | [6] 0.053 | [10] -0.051

Next part

OSGEPL1 (UniProt Q9H4B0)
inactive: [2] 0.125 | [9] 0.058 | [5] -0.114 | [6] 0.124 | [7] -0.132 | [8] -0.021

OPTN (UniProt Q96CV9)
inactive: [2] -0.18 | [3] 0.11 | [4] 0.19 | [9] -0.073 | [5] 0.086 | [6] -0.019 | [10] -0.099 | [7] 0.141 | [8] -0.092

P2RY1 (UniProt P47900)
inactive: [2] -0.036 | [4] -0.043 | [9] 0.121 | [5] 0.055 | [7] -0.087 | [8] 0.218

NUMBL (UniProt Q9Y6R0)
inactive: [2] 0.019 | [3] 0.073 | [4] -0.01 | [5] 0.007 | [6] -0.023 | [7] 0.041 | [8] -0.259

OGFOD3 (UniProt Q6PK18)
inactive: [2] 0.097 | [3] 0.065 | [10] 0.069

NUDT14 (UniProt O95848)
inactive: [2] -0.14

OPHN1 (UniProt O60890)
inactive: [1] 0.036 | [3] -0.016 | [4] 0.043 | [5] -0.143 | [7] 0.108 | [8] -0.095

OSBPL2 (UniProt Q9H1P3)
inactive: [2] 0.025

OAS3 (UniProt Q9Y6K5)
inactive: [10] -0.051 | [7] 0.03

NUDT5 (UniProt C9JYY9)
inactive: [4] -0.182 | [9] -0.08 | [5] -0.091 | [6] -0.096 | [10] -0.022 | [7] 0.02 | [8] -0.022

NUF2 (UniProt Q9BZD4)
inactive: [2] -0.127 | [3] 0.173 | [4] -0.14 | [5] 0.024 | [6] -0.106 | [10] -0.022 | [7] 0.524 | [8] 0.106

NXF1 (UniProt Q9UBU9)
inactive: [2] -0.068 | [3] 0.095 | [5] 0.105 | [8] 0.06

OSBPL11 (UniProt Q9BXB4)
inactive: [9] 0.35

ODC1 (UniProt P11926)
inactive: [2] 0.034 | [3] 0.034 | [9] -0.104 | [7] 0.071

NUDT7 (UniProt P0C024)
inactive: [3] 0.187 | [4] -0.067 | [5] -0.055 | [8] 0.322

OCIAD1 (UniProt D6RDK6)
inactive: [1] 0.236 | [2] 0.126 | [4] -0.148 | [9] 0.071 | [5] 0.195 | [6] -0.056 | [10] 0.057 | [7] 0.006 | [8] -0.049

P2RX4 isoform 2 (UniProt Q99571)
inactive: [2] 0.178 | [3] -0.118 | [4] -0.043 | [9] 0.004 | [6] 0.164 | [10] 0.082 | [7] 0.179
